Molecules are shown by their SMILES. Hit rate of the full screen: of about 1,400 compounds, about 30 (2%) were called active. About 15% were inconclusive and are not listed. The call rests on the fitted dose curve; in most records, active means well fitted inhibition curve with a large enough effect; inconclusive means small, poorly fitted or top-dose-only effect; inactive means flat fitted curve, though single readings scatter. The list shows a part of the results.
On the % scale 0 is the no-effect control and ±100 the full control effect.

This assay can be described thus: Firefly Luciferase Counterscreen for Inhibitors of ATXN expression. The note with it: luminescence; at 57.5 µM (top of the series). An excerpt:
University of Utah School of Medicine, Salt Lake City, Utah
Spinocerebellar ataxia type 2 (SCA2) is a multisystem neurodegenerative disease caused by a dominantly acting mutation leading to expansion of a polyQ domain in the ataxin-2 protein (ATXN2). SCA2 patients develop progressive ataxia and later lose function in other neuronal systems. Prominent parkinsonian signs develop in some patients. Like many neurodegenerative disorders, no symptomatic or disease-modifying treatments are known.
The primary objective of the proposed research is to identify compounds inhibiting ATXN2 expression and to test them for efficacy in SCA2 mouse models. We have developed a cell-based assay paired with an in vivo mouse model using identical luciferase expression constructs. This approach takes advantage of an ATXN2-luciferase transgene, with the luciferase gene flanked by the upstream and downstream portions of the ATXN2 gene. Here we describe a 5-7 dose quantitative high thoroughput screen (qHTS) for compounds lowering ATXN2 expression. We screened the NIH Molecular Libraries Small Molecule Repository (MLSMR) and NCGC's mechanistically annotated (MIPE) and drug repurposing (NPC) collections of compounds for lowering expression of an ATXN2-luciferase reporter in HEK-293 cells. The assay is a multiplexed cell viability assay to ensure target reduction in the absence of cytotoxicity. Secondary qHTS assays included a CMV-luciferase reporter expressed in HEK-293 cells as well as a biochemical assay using recombinant luciferase to detect inhibitors of the reporter enzyme. Compounds that inhibit ATXN2 expression but is not cytotoxic were selected for confirmatory and secondary screens.
PROTOCOL TABLE (as described by Inglese J, Shamu CE and Guy RK. 2007)
SEQUENCE No. (e.g., 1, 2, 3, etc.); […] (e.g., Cells, Incubation, Reagent, etc.); VALUE; DESCRIPTION.
2; Compounds; 23 nL; Kalypsis pintool (Wako USA) equipped with a 1536-well pin head.
3; Enzyme; 1 uL; recombinant firefly luciferase (prepared in 50 mM Tris HCl pH7.5, 10 mM MgCl2, 0.05% BSA, 0.01% Tween20) at final concentration of 10 nM. Wells containing buffer only were used as control (set as 100% inhibition when normalizing data).
4; Incubation; 10 min; room temperature.
5; Detection; Luminescence; Viewlux plate reader (PerkinElmer).
NOTES (numbers refer to Sequence numbers above)
1. Luciferase substrate is added to 1536 well, Greiner white assay plate. Evaporation was prevented by covering assay plates with metal lids containing holes to allow gas diffusion.
2. Compounds were added in a dose response manner with the final concentrations of 57, 11.4, 2.28, 0.46, 0.091, 0.018, 0.0037 uM. Vehicle-only plates, with DMSO being pin-transferred to columns 5-48, were inserted uniformly at the beginning and the end of each library to monitor and record any shifts in assay performance.
3. Recombinant firefly luciferase (10 nM final concentration) is added to the assay plate.
5. End-point luminescence is then measured on the Viewlux (PerkinElmer) imager equipped with a clear emission filter using a 2 sec exposure.
Inglese J, Shamu CE and Guy RK, Reporting data from high throughput screening of small molecule libraries, Nature Chemical Biology, 2007, 3(8): 438-441. doi.org/10.1038/nchembio0807-438.
Regarding `CCCCCCC(=O)N/N=C/c1c(O)n(CCc2ccccc2)c(=O)[nH]c1=O`, the activity change, negative = inhibition is inactive: -1.76%.

Take `COc1ccc(CC2C(=O)NC(C)C(=O)N(C)C3C(=O)N(C)C(Cc4ccc(O)c(c4)Oc4ccc(cc4)C3O)C(=O)NC(C)C(=O)NC(C)C(=O)N2C)cc1` (centres undefined): the activity change, negative = inhibition was inactive: 1.63%. In the case of `O=c1[nH]c2ccccc2n1C1CCN(C(CCc2ccccc2)c2nnnn2C2CCCC2)CC1` (centres undefined), the activity change, negative = inhibition is inactive: 2.35%. With `C[C@H]1[C@@H](OS(=O)(=O)O)C[C@@H]2C[C@H]([C@@H](O)c3cc(=O)[nH]c(=O)[nH]3)NC3=NC[C@H]1N32` the figure was inactive: 0.756%; with `O=[N+]([O-])c1ccc(C(c2ccc([N+](=O)[O-])cc2)c2ccc([N+](=O)[O-])cc2)cc1`, inactive: 2.49%.

In the case of `CC(=NCCc1c[nH]c2ccccc12)c1c(O)n(Cc2ccccc2)c(=O)[nH]c1=O`, the activity change, negative = inhibition is inactive: 2.57%. For the molecule `CC12CCC3C(CCC4(O)CC(O)CCC34C=NO)C1(O)CCC2C1=COC(=O)C1` (centres undefined), the activity change, negative = inhibition was inactive: 6.38%. Then `CC12CCC(O)CC1CCC1C2CCC2(C)C(C3=CC(=O)OC3)CCC12O` (centres undefined), with inactive: 3.41%.

As to `CNCC(O)c1cc(OCc2ccccc2)c(OCc2ccccc2)cc1F` (centres undefined), the activity change, negative = inhibition was inactive: 3.51%.

For `CCCCCn1c(=O)c(C(=O)NCc2ccncc2)c(O)c2ccccc21`, the activity change, negative = inhibition is inactive: -2.82%. Then `COc1cc2c(cc1OC)[C@@H]1C(=O)c3ccc4c(c3O[C@@H]1CO2)C[C@H](C(C)C)O4`, with inactive: -4.43%; and `C[C@@H]1C[C@@H]([C@H](O)CC2CC(=O)NC(=O)C2)C(=O)[C@@H](C)C1`, with inactive: 3.21%; and `CCCCCn1c(NC(=O)c2ccco2)c(C(=O)OCC)c2nc3ccccc3nc21`, with inactive: -9.71%. With `C[C@]12CCC3C(CCC4=CC(O)CC[C@@]43/C=N/O)C1(O)CCC2C1=CC(=O)OC1` (some centres undefined) the figure was inactive: 2.35%; with `C[C@]12CC[C@H](O)C[C@H]1CC[C@@H]1[C@@H]2CC[C@]2(C)[C@@H](C3=CC(=O)OC3)CC[C@]12O`, inactive: 4.18%. Turning to `COc1cc2c(cc1OC)C1C(=O)c3ccc4c(c3OC1CO2)CC(C(C)C)O4` (centres undefined), the activity change, negative = inhibition was inactive: -1.73%. Then `COc1cc2nc(CN3CC=C(c4ccccc4)CC3)[nH]c(=O)c2cc1OC`, with inactive: -1.91%. For `O=C1NC(=O)C2(CCCc3ccc(N(CCCl)CCCl)cc32)N1` (centres undefined), the activity change, negative = inhibition is inactive: -9.28%.

Consider `COc1cc(C(=O)NN=Cc2ccc(N(CCCl)CCCl)cc2)cc(OC)c1OC`, for which the activity change, negative = inhibition was inactive: -11.6%. Take `CCCCN=C[C@]12CCC(O)CC1(O)CCC1[C@@H]2CC[C@]2(C)[C@H](C3C=CC(=O)O3)CCC12O` (some centres undefined): the activity change, negative = inhibition was inactive: 1.73%. Then `CCC(C)OC(=O)c1c(N)n(Cc2cccs2)c2nc3ccccc3nc12` (centres undefined), with inactive: -1.95%; and `CCOC(=O)c1c(N)n(CCN2CCCCC2)c2nc3ccccc3nc12`, with inactive: 0.489%.

As to `C[C@@H]1O[C@@H](O[C@@H]2C=C3CC[C@@H]4C(CC[C@]5(C)[C@@H](c6ccc(=O)oc6)CC[C@]45O)[C@@]3(C)CC2)[C@H](O)[C@H](O)[C@H]1O` (some centres undefined), the activity change, negative = inhibition was inactive: -0.422%. `COc1ccc(CCNC(=O)c2c(N)n(CCN3CCOCC3)c3nc4ccccc4nc23)cc1`: the activity change, negative = inhibition was inactive: -11.1%. With `CC(=O)OC(C)(C)/C=C/C(=O)C(C)(O)C1[C@H](O)C[C@@]2(C)C3CC=C4C(CC[C@@H](O)C4(C)C)[C@]3(CO)C(=O)C[C@]12C` (some centres undefined) the figure was inactive: 4.43%; with `COc1ccc2c(c1)C(c1ccc(N(CCCl)CCCl)cc1)=NCC2`, inactive: 3.03%. Then `COc1ccc(CC2NCC(O)C2OC(C)=O)cc1` (centres undefined), with inactive: 1.25%; and `Cc1cc(N(CCCl)CCCl)ccc1C=NNC(=O)c1cccnc1`, with inactive: -14.8%. With `CC(C)(C)n1nnnc1C(CCc1ccccc1)N1CCC(n2c(=O)[nH]c3ccccc32)CC1` (centres undefined) the figure was inactive: 1.95%; with `O=C1NC(=O)N(CCc2ccc(F)cc2)C(=O)/C1=C/C=C/c1ccccc1`, inactive: 0.883%; with `CC(=O)OC1CC2(O)C3CCC4CC(O)CCC4(C)C3CCC2(C)C1C1=CC(=O)OC1` (centres undefined), inactive: 4.3%. As to `CCC(C)N1C(=O)/C(=C\c2cnc(N(C)C)nc2)C(=O)NC1=S` (centres undefined), the activity change, negative = inhibition is inactive: -17.6%.

In the case of `COC12C(COC(N)=O)C3=C(C(=O)C(C)=C(N)C3=O)N1CC1C2N1C` (centres undefined), the activity change, negative = inhibition was inactive: -5.01%.

For `CCCCC(=O)N/N=C/c1c(O)n(CCC2=CCCCC2)c(=O)[nH]c1=O`, the activity change, negative = inhibition was inactive: -3.19%.

For the origin of these results see PubChem BioAssay AID1745846 (National Center for Advancing Translational Sciences (NCATS), 2022).
